# Patent publication US5356887A, “Pharmaceutical compositions containing insoluble calcium salts of amino-hydroxybutylidene bisphoshonic acids” (Merck & Co., Inc., priority 1993, dated 1994)
# Structures can show the parent of a compound that is named as a salt. Where two headings read alike, the source gives them in different places.
# Tests used:
# [1] = test system: immobilized femur; settings: suspension vs solution of the (ABP)Na salt
# Protocol: (§1) On day 0 all rats underwent surgery whereby the sciatic nerve of the right hind limb was severed. Ten days following immobilization surgery, the rats were sacrificed and hind limbs removed. The femora were defleshed, maximum femoral length of both femora measured and then placed in a muffle furnace at 700° C. for 24 hours.
# (§2) mg Diff = difference in ash weight between the intact femur and the
# (§3) se = standard error of the mean
# (§4) % Bone Loss = ash weight difference between the intact femur and the
# (§5) immobilized femur divided by the ash weight of the intact femur
# [2] = test system: site of injection; settings: subcutaneous, 1.0 mg P/ml, relative to (ABP)Na solution
# Protocol: as §1
# [3] = test system: immobilized femur; settings: suspension vs solution of the (ABP)Na salt; remark: listed apart in the source
# Protocol: Immobilization was produced by unilateral hind limb sciatic neurectomy. Ten days after surgery the rats were sacrificed, hind limbs removed, and the femora ashed at 700° C. for 24 hours. Ash weight was determined and the difference between the ash weight of the intact limb and immobilized limb calculated and expressed as the mg difference. Per cent difference was calculated as the % difference in ash weight between the intact and immobilized limb.
# as §2, §3, §4, §5
# [4] = test system: soft tissues; settings: in vivo
# [5] = in vivo, sc
Structure (SMILES),"% bone loss relative to (ABP)Na, in words [1]",Tendency to induce irritation at the site of injection [2],"% bone loss relative to (ABP)Na, in words [3]","Propensity of causing pain, irritation and damage to soft tissues [4]",Uptake by the liver and excretion by the kidneys [5]
"NCCCC(O)(P(=O)(O)O)P(=O)(O)O [(ABP)3 Ca4, tri[(4-amino-1-hydroxybutylidene)-1,1-bisphosphonic acid] tetracalcium salt]",less,lower tendency to induce irritation at the site of injection relative to the solution of the (ABP)Na salt,,,
"NCCCC(O)(P(=O)(O)O)P(=O)(O)O [(ABP)2 Ca, di[(4-amino-1-hydroxybutylidene)-1,1-bisphosphonic acid] monocalcium salt]",less,lower tendency to induce irritation at the site of injection relative to the solution of the (ABP)Na salt,comparable,,
"NCCCC(O)(P(=O)(O)O)P(=O)(O)O [(ABP)Ca, [(4-amino-1-hydroxybutylidene)-1,1-bisphosphonic acid] monocalcium salt]",,,comparable,dramatically lower,lower than in the case of the soluble sodium ASP solution
